According to PubChem BioAssay AID493014 (National Center for Advancing Translational Sciences (NCATS), 2011):
“And” between values parts separate entries of the source, which are not always exact repeats. Identical values can stand only once. The list shows a part of the results. Shown are side measurements of this screen, not its main read-out; they come without a call. Most of these compounds were active or inconclusive in the main read-out, so they are no random draw. The note in brackets gives the kind of curve behind each potency; many fits are weak.

Assay: qHTS Assay to Find Inhibitors of Chronic Active B-Cell Receptor Signaling
Conditions: ABC-DLBCL IkBa-CBG/CBR reporter, luminescence ratio (green luciferase fused to IkBa over red control in TMD8 lymphoma cells), 4 h
Procedure, shortened: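 Compounds up to 46 uM were incubated four hours with TMD8 cells whose green CBG68 luciferase is fused to IkappaBalpha; red CBR luminescence normalised the signal, and concentration-effect curves were fitted to fusion, red and ratio data.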

[1] = measured here: CBR red luminescence, cell number
[2] = measured here: IkBa-CBG green luminescence

Structure (SMILES) | AC50 [1] | AC50 [2]
O=C1CCCC/C1=C/NCc1ccc(F)cc1 | 10 µM [rising, single point] | 
CC1CCC/C(=N\NC(=O)c2ccncc2)C1 (centres undefined) | 3.66 µM [rising, single point] | 
O=C(CN1C(=O)S/C(=C/c2ccc(N3CCOCC3)cc2)C1=O)N1CCOCC1 | 2.91 µM [rising, full curve, poor fit] | 
Cc1ccc(OCCN2CCN(c3ncnc4sc(C)c(C)c34)CC2)cc1 | 9.2 µM [rising, single point] | 
COC(=O)c1sc(NC(=O)COc2ccc(C)cc2)nc1C | 1.84 µM [falling, full curve] | 
NS(=O)(=O)OCCCCCc1ccccc1 | 2.82 µM [rising, full curve] | 
O=C(NCc1ccc(C(=O)O)cc1)OCc1ccccc1 | 17.8 µM [falling, single point] | 
Cc1csc2nc(SCC(=O)N3CCN(c4ccccc4)CC3)[nH]c(=O)c12 | 3.98 µM [rising, partial curve, poor fit] | 
Cc1cccc(C)c1Nc1nnc(SCC(=O)c2ccc(Br)s2)s1 | 18.4 µM [falling, single point] | 
COc1ccccc1N1CCN(C(=O)c2ccc(-c3nc4ccccc4s3)o2)CC1 | 29.1 µM [falling, single point] | 
Cc1ccccc1N=C1Nc2ccccc2CS1 | 4.47 µM [rising, single point] | 
CCc1ccc(-c2[nH]nc3nc(-c4ccc(OC)cc4)cc(C(=O)NCCCOC)c23)cc1 | 3.98 µM [rising, single point] | 
O=C(OCC(=O)N1CCOCC1)c1ccccc1SCC(=O)N1CCCC1 | 35.5 µM [rising, single point] | 
CC(Oc1ccccc1)C(=O)Nc1nnc(C2CCCCC2)s1 (centres undefined) | 0.708 µM [rising, full curve, poor fit] | 
Cc1cc(C)c(S(=O)(=O)Cc2ccccc2)c(=O)[nH]1 | 5.62 µM [falling, single point] | 
O=C(CC1C(=O)NCCN1C/C=C/c1ccccc1)NCCc1cccnc1 (centres undefined) | 22.4 µM [rising, single point] | 
COc1ccccc1NC(=O)CSc1nnnn1C1CCCC1 | 3.55 µM [falling, full curve] | 

Structure (SMILES) | AC50 [1] | AC50 [2]
Cc1c2c(nc3c(C)cccc13)OC(C)C2 (centres undefined) | 20.6 µM [rising, single point] | 10 µM [falling, partial curve, poor fit]
CCOC(=O)c1c(C(C#N)C#N)cc(C)nc1C | 35.5 µM [rising, partial curve, poor fit] | 
Cc1ccc(Cc2cnc(NC(=O)c3cccs3)s2)cc1 | 17.8 µM [falling, single point] | 
c1ccc(Nc2nc3ccccc3o2)cc1 | 23.1 µM [falling, single point] | 
COc1cccc(-c2nc(N3CCC(C)CC3)c3ccccc3n2)c1O | 35.5 µM [rising, single point] | 
CCCCOc1ccc(N=Nc2ccc(N)nc2N)cn1 | 1 µM [rising, partial curve, poor fit] | 
O=c1c2c(c(-c3ccccc3)nn1Cc1ccccc1)CCCC2 | 14.1 µM [falling, single point] | 
O=C(CSc1nc2nc(-c3cccs3)cc(C(F)(F)F)c2c(=O)[nH]1)C(F)(F)F | 0.0891 µM [falling, full curve, poor fit] | 
Cc1cc(/C=N/NC(=O)c2cccc(F)c2)c(C)n1-c1ccccc1 | 10 µM [falling, partial curve, poor fit] | 
Fc1cnc(N/N=C/c2ccc(-c3ccc(Br)cc3)o2)nc1N1CCOCC1 | 10 µM [falling, partial curve, poor fit] | 
COc1ccc(N=C2C(=O)Nc3c(C)cccc32)cc1 | 5.01 µM [rising, partial curve, poor fit] | 
COc1cccc(/C=N/Nc2nc(N3CCCC3)nc(N3CCCC3)n2)c1O | 2 µM [falling, full curve] | 
CCN1CCN(CCNC(=O)CSCc2nc(-c3ccc(OC)c(OC)c3)oc2C)CC1 | 14.6 µM [rising, partial curve] | 
CC(=O)c1ccc2c(c1)CC(C)C(=O)N2C (centres undefined) |  | 20.6 µM [falling, partial curve, poor fit]
CC[C@]12c3[nH]c4ccc(OC)cc4c3CCN1C(=O)C(CC(=O)NCC13CC4CC(CC(C4)C1)C3)C[C@@H]2C(=O)N1CCN(C(=O)C2CC2)CC1 (some centres undefined) | 25.9 µM [falling, single point] | 
O=C(NOCc1ccccc1)c1ccccc1 | 20.6 µM [falling, single point] and 23.1 µM [falling, partial curve, poor fit] | 
